Construct, isoform or probe ends are uncertain for at least one entry. For some of these results: A weaker result is weaker than the reference pair of the same experiment. For some of these results: Where a protein sequence is shown, tags need not be part of it.
Experiments:
L-Sox5 + Sox6 + Sox9 = experiment: activity in cells; details: protein in cells, protein details: HA (pcDNA3-HA vectors), co-expressed in 293T
Sox9 = target: T1, Sox9 (UniProt Q04887); experiment: activity in cells; details: protein in cells, protein details: HA (pcDNA3-HA-Sox9), expressed in 293T
T1 sequence (looked up, limits assumed): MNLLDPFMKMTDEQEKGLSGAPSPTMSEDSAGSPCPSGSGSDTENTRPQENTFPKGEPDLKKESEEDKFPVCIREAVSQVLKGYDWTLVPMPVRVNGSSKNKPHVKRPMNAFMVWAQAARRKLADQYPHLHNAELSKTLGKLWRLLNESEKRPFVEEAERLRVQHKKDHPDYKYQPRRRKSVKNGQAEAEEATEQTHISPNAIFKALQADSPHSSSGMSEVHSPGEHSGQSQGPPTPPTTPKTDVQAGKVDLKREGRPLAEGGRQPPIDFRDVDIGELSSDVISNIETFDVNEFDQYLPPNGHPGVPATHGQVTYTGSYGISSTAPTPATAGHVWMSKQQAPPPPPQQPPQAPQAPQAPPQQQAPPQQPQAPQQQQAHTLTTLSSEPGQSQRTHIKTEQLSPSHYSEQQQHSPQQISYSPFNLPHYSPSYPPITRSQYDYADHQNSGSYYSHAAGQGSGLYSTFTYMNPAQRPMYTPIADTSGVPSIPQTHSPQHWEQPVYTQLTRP

[1] = lower than 3k, variant of pGL4-miR140-3k
[2] = similar to 3k with Sox9 alone, variant of pGL4-miR140-3k

Row | Sequence | activity on this sequence (L-Sox5 + Sox6 + Sox9; same activity as 3k, variant of pGL4-miR140-3k) | activity on this sequence (L-Sox5 + Sox6 + Sox9; [1]) | activity on this sequence (Sox9; [2]) | activity on this sequence (L-Sox5 + Sox6 + Sox9; further potentiated by L-Sox5 and/or Sox6, variant of pGL4-hgmiR140-3k) | activity on this sequence (Sox9; luciferase increased by Sox9, variant of pGL4-hgmiR140-3k)
1 | CAGCTCCTCCAACTTTTCAGGCTTCCTTTGTGAAAGGGGCCCTATCCCATCAAGGAACCTATGGTTTCAAGACTTACTGTTGGAATTACTTGGAAGAGGAGCCTGTGTTGCCACCTTGGGAAGAAAGTTTCTCTGTCCCTTCAGTTGGGGGTAGCGGGAGGGCTGCAGTGGGCTTGGCTGGCAGTGGAGCACCACTGGTATTTGCACAAGGCTGGACTGAGCCCCATTCATCGTCCTGCTGCTGTGTGCGGCTCTGTCATCCCCAGATGGAGCCAGCCAGGTCTGCAGCCTGAAGTCTGCATTCAGAACTTGATCCCCTAATACGATGATTAAATTCTAGTAAGTGAAATAAAAATGCTTGAGTGGGGGAGAGAACGGAGTCAAATAATCGTCGTTTTATTTAACTATGAAAAGTTTTTGACATGCGCCCTCTGCATCCCGAAGGCTACGAGGACTCTCTCTCCATCTATTGCAGCCCTTCCCCTGGGACCTTGAGGCAATAATAGGCCGAAGGGGCAGTGTAAATGGTGACCCTGACGGCCCAAAGCCCCTTCCCCCTTCCCTTTCACCAGCCCCAGCACCAACTCCCCAGACAGGCAAACACAGAACACTGAGCAACTTGAGGTTCAGGCAGGGAAGAATAAAGGTGCTTTGTGAAGGGAAAGGAAAACATTTCTGGGGGAGGTGAGGGGCTTGGGCATGAAAGTGCCCTCAGTCTGGGTGGATGCTGCACACCCAGGAGGGAGGTGGTGGGAGGAGGGCCGGGCCCCAGCCAGGAAGCCCTGGGCGTGGGCAGGGCTTGTGGGAATGATTTCATTGGAAAGGCCTGCGGTATTTTTTCCCCTCCTGTGTGTGGTTCTTGGAGAAAGTTGGAGGTGGTGAGGATTTCAGTTGCCTTGGCCGCCGGGCGGGAGCAGGAGCTGAGCAGAGGTCGGT (double strand) [pGL4-miR140-1k] | active |  |  |  | 
2 | GCCACCTTGGGAAGAAAGTTTCTCTGTCCCTTCAGTTGGGGGTAGCGGGAGGGCTGCAGTGGGCTTGGCTGGCAGTGGAGCACCACTGGTATTTGCACAAGGCTGGACTGAGCCCCATTCATCGTCCTGCTGCTGTGTGCGGCTCTGTCATCCCCAGATGGAGCCAGCCAGGTCTGCAGCCTGAAGTCTGCATTCAGAACTTGATCCCCTAATACGATGATTAAATTCTAGTAAGTGAAATAAAAATGCTTGAGTGGGGGAGAGAACGGAGTCAAATAATCGTCGTTTTATTTAACTATGAAAAGTTTTTGACATGCGCCCTCTGCATCCCGAAGGCTACGAGGACTCTCTCTCCATCTATTGCAGCCCTTCCCCTGGGACCTTGAGGCAATAATAGGCCGAAGGGGCAGTGTAAATGGTGACCCTGACGGCCCAAAGCCCCTTCCCCCTTCCCTTTCACCAGCCCCAGCACCAACTCCCCAGACAGGCAAACACAGAACACTGAGCAACTTGAGGTTCAGGCAGGGAAGAATAAAGGTGCTTTGTGAAGGGAAAGGAAAACATTTCTGGGGGAGGTGAGGGGCTTGGGCATGAAAGTGCCCTCAGTCTGGGTGGATGCTGCACACCCAGGAGGGAGGTGGTGGGAGGAGGGCCGGGCCCCAGCCAGGAAGCCCTGGGCGTGGGCAGGGCTTGTGGGAATGATTTCATTGGAAAGGCCTGCGGTATTTTTTCCCCTCCTGTGTGTGGTTCTTGGAGAAAGTTGGAGGTGGTGAGGATTTCAGTTGCCTTGGCCGCCGGGCGGGAGCAGGAGCTGAGCAGAGGTCGGT (double strand) [pGL4-miR140-0.8k] |  | less active | active |  | 
3 | GTATTTGCACAAGGCTGGACTGAGCCCCATTCATCGTCCTGCTGCTGTGTGCGGCTCTGTCATCCCCAGATGGAGCCAGCCAGGTCTGCAGCCTGAAGTCTGCATTCAGAACTTGATCCCCTAATACGATGATTAAATTCTAGTAAGTGAAATAAAAATGCTTGAGTGGGGGAGAGAACGGAGTCAAATAATCGTCGTTTTATTTAACTATGAAAAGTTTTTGACATGCGCCCTCTGCATCCCGAAGGCTACGAGGACTCTCTCTCCATCTATTGCAGCCCTTCCCCTGGGACCTTGAGGCAATAATAGGCCGAAGGGGCAGTGTAAATGGTGACCCTGACGGCCCAAAGCCCCTTCCCCCTTCCCTTTCACCAGCCCCAGCACCAACTCCCCAGACAGGCAAACACAGAACACTGAGCAACTTGAGGTTCAGGCAGGGAAGAATAAAGGTGCTTTGTGAAGGGAAAGGAAAACATTTCTGGGGGAGGTGAGGGGCTTGGGCATGAAAGTGCCCTCAGTCTGGGTGGATGCTGCACACCCAGGAGGGAGGTGGTGGGAGGAGGGCCGGGCCCCAGCCAGGAAGCCCTGGGCGTGGGCAGGGCTTGTGGGAATGATTTCATTGGAAAGGCCTGCGGTATTTTTTCCCCTCCTGTGTGTGGTTCTTGGAGAAAGTTGGAGGTGGTGAGGATTTCAGTTGCCTTGGCCGCCGGGCGGGAGCAGGAGCTGAGCAGAGGTCGGT (double strand) [pGL4-miR140-0.7k] |  | less active | active |  | 
4 | GTTTTCTCAAGCCGACACTGAGCCCCATTCATCCTCCTGCCCATGTGTGGCTCCGGCACCCCTAGACGGGGCCAGCCCAGCAGCCTGAAGTCCGCATTTAGAACTTGATCCCCTCTTATAACGATTAAATTTTAGTAAGTAAAATAAAAATGCTTCAGAAAGAAAAAAAAGAAAGGAAGAAAGAGTGGAACAATACTTGTTTTATTTAACGACCAGAACTTTTTGACAACACCCCCCTTCCCCGCAGGATATGAGAATGCCTGGTCCACTGCAGTCCATCCCCAGGGACCTCGAAGCAGAATTTGGCTGGAGGGGGTGCGGGGGGGATTCTAATGTAAACAGTGACCCTGAAGCCCTGGAGCCAGTTCCCCCTTCTTTCCCCTGTCTCCCCTTCTGTCTTGCTGCCCCACCCCCAGCCCCAACACCCCCCACCCCCCCCACCCCCACCCCGAGACAAACACAGAACACTGAGCAACTTCAGGTTCAGGCAGGGGAGGAATAAAGGTGCTTTGTAAAGGGGAAGGAAAACATTCCTGGGGGAGGTGAGGGCTTGGGGCATGAATGTGCCCTCAGTCTGGGTGGACGCTGCACACCCAGATGGGAGGTTGGGGGGGACGCCGAGGTGGAGGGAGGAGGGCCGGGCCCCAGCCAGGAAGCTCTGGGCGTGGGCAGGGCTTGTGGGAATGATTTCATTGGAAAGGCCTGCGATATTTTTTCCCCTCCTGCGTGTGGTTCTTGGAGAAAGTTGGAGGTGGTGGTGATTTCAGTCGCCTTGGCCGCCTTGAGCCGGAGCTGAGCGGAGGCACT (double strand) [pGL4-hgmiR140-0.7k] |  |  |  | active | active
